According to article PMC7011920, “Synthesis and biological evaluation of stilbene derivatives coupled to NO donors as potential antidiabetic agents” (Journal of Enzyme Inhibition and Medicinal Chemistry, 2018):

Test: In vitro NO releasing property (detection of nitrite, Griess reagent)
Conditions: percentage of NO released relative to theoretical maximum of 1 mol NO/mol compound, 5 mM L-cysteine, pH 7.4, mean ± SD (n = 3)

Row | SMILES | NO releasing activity (%)
1 | COc1cc(/C=C/c2ccc(OCCO[N+](=O)[O-])cc2)cc(OC)c1 [3a, O4′-Nitrooxyethyl pterostilbene] | 1.029 ± 0.009
2 | COc1cc(/C=C/c2ccc(OCCCCO[N+](=O)[O-])cc2)cc(OC)c1 [3b] | 1.359 ± 0.034
3 | COc1cc(/C=C/c2ccc(OCCCCCCO[N+](=O)[O-])cc2)cc(OC)c1 [3c] | 1.391 ± 0.050
